From publication PMC4068993, “Chlamydia pneumoniae CopD Translocator Protein Plays a Critical Role in Type III Secretion (T3S) and Infection” (PLoS ONE, 2014)

How the values were obtained:
Experiment in all cases: pull-down; GST-tagged bait on glutathione-agarose beads blocked with 5% BSA; 1 mL E. coli lysate with overexpressed His-tagged prey, 2 h at 4°C; seven washes with high salt buffer (500 mM KCl, 20 mM TRIS-HCl pH 7.0, 0.1% Triton X-100; results say 500 mM NaCl); anti-His Western blot; only the target purified
[1] = molecular target: T1, GST-CopD_(1–137) (Chlamydia pneumoniae CWL029) (UniProt Q9Z798)
T1 sequence: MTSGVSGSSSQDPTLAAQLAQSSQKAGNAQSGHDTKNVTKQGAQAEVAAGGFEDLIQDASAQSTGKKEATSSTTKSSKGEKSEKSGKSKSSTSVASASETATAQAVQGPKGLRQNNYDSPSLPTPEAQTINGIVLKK

[2] = molecular target: T2, GST-CopD_(1–157) (Chlamydia pneumoniae CWL029) (UniProt Q9Z798)
T2 sequence: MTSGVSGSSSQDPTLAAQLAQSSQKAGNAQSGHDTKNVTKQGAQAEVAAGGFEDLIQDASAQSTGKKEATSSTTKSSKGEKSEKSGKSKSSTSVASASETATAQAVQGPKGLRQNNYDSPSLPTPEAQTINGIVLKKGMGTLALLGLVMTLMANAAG

[3] = molecular target: T3, GST-CopD_(227–444) (Chlamydia pneumoniae CWL029) (UniProt Q9Z798)
T3 sequence: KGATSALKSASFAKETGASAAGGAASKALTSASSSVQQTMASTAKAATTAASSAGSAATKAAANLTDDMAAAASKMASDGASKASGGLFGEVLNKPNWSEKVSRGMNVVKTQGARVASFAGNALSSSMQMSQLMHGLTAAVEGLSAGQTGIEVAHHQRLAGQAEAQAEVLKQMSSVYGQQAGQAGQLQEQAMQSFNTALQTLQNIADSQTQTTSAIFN

“His-LcrH_1 (Chlamydia pneumoniae CWL029)” was tested, and the binding [1] was “no binding”, the binding [2] was “binds” and the binding [3] was “no binding”.

These are yes or no findings as the source states them, for the method shown. In cells and extracts the contact can be indirect. For part of these data: Binding calls can cover weak binding; strength is not graded here. Sequences can lack the tags named with a protein.
